Where a name gives a salt, the structure may show the parent alone. The list shows a part of the results. This data set is noisy: repeats of one test often differ as much as different tests do.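 Human U-2 OS cells stably expressing a GFP sensor with a nuclear import signal and classical export signal were transfected to produce PR50, a 50-repeat proline–arginine dipeptide from ALS/FTD gene C9ORF72. Nuclear-minus-cytoplasm GFP was scaled from DMSO (low) to PR-only (high), scored against plate test wells; strongly negative scores marked PR-reversing hits.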

In the assay the test system is U-2 OS NCT-C biosensor cells expressing PR50. In words: Z-score of normalised NCT-C biosensor translocation index in PR50-expressing cells; higher = more nuclear biosensor (more disrupted nuclear export). The conditions noted are these: 3 µM; 24 h.
For `CCCc1c(-c2ccc(O)cc2)nn(-c2ccc(O)cc2)c1-c1ccc(O)cc1` [1,3,5-tris(4- hydroxyphenyl)-4- propyl-1H- pyrazole], the Z-score was inactive: -0.918.

Consider `CC1=CC[C@@]2(C)CC[C@@](O)(C(C)C)[C@@H]2[C@@H](OC(=O)c2ccc(O)cc2)C1` [Ferutinin], for which the Z-score was inactive: 0.0222.

Take `CCCCC[C@H](O)/C=C/C1=C(CCCCCCC(=O)O)C(=O)CC1` [Prostaglandin B1]: the Z-score was inactive: -0.974.

`C=C1C(=O)[C@]23[C@H](O)[C@H]1CC[C@H]2[C@@]12CO[C@]3(O)[C@@H](O)[C@@H]1C(C)(C)CC[C@@H]2O` [Oridonin]: the Z-score was inactive: 2.13.

On to `Oc1ccc(/C=C/c2cc(O)cc(O)c2)cc1` [Resveratrol], for which the Z-score was inactive: -1.25.

For `CCN(CC)Cc1ccc(C(=O)N(CCc2ccccc2OC)[C@@H]2CCNC2)cc1`, the Z-score was inactive: 0.731.

For the compound `CCOC(=O)C1=C(COCCN)NC(C)=C(C(=O)OC)C1c1ccccc1Cl` (centres undefined) [Amlodipine], the Z-score is inactive: -0.103.

As to `COc1ccc(/C=C/C(=O)Nc2ccccc2C(=O)O)cc1OC` [Tranilast], the Z-score was inactive: -0.267.

Take `CCN(CC)CCNC(=O)c1c(C)[nH]c(/C=C2\C(=O)Nc3ccc(F)cc32)c1C` [Sunitinib Malate]: the Z-score was inactive: -0.752.

With `Cc1cccc(C)c1OCC(C)N` (centres undefined) [Mexiletine·HCl], the Z-score was inactive: -0.438.

For `Cc1cccc(C)c1OCC(C)N` (centres undefined) [Mexiletine hydrochloride], the Z-score was inactive: 0.236.

Regarding `O=C(Nc1ccc(Oc2ccc(Cl)cn2)c(Cl)c1)c1ccccn1`, the Z-score is inactive: -1.13.

For the compound `COc1ccccc1N1CCN(CCCCN2C(=O)c3ccccc3C2=O)CC1` [NAN-190 hydrobromide], the Z-score is inactive: 0.949.

In the case of `CC[C@]1(O)C[C@H]2CN(CCc3c([nH]c4ccccc34)[C@@](C(=O)OC)(c3cc4c(cc3OC)N(C=O)[C@H]3[C@@](O)(C(=O)OC)[C@H](OC(C)=O)[C@]5(CC)C=CCN6CC[C@]43[C@@H]65)C2)C1` [Vincristine Sulfate], the Z-score is inactive: 0.971.

Take `CC[C@]1(O)C[C@H]2CN(CCc3c([nH]c4ccccc34)[C@@](C(=O)OC)(c3cc4c(cc3OC)N(C=O)[C@H]3[C@@](O)(C(=O)OC)[C@H](OC(C)=O)[C@]5(CC)C=CCN6CC[C@]43[C@@H]65)C2)C1` [Vincristine sulfate salt]: the Z-score is inactive: 1.09.

As to `NC[C@@H]1O[C@H](O[C@H]2[C@@H](O)[C@H](O[C@@H]3[C@@H](O)[C@H](N)C[C@H](N)[C@H]3O[C@H]3O[C@H](CO)[C@@H](O)[C@H](O)[C@H]3N)O[C@@H]2CO)[C@H](N)[C@@H](O)[C@@H]1O` [Paromomycin sulfate], the Z-score was inactive: -0.232.

On to `NC[C@@H]1O[C@H](O[C@H]2[C@@H](O)[C@H](O[C@@H]3[C@@H](O)[C@H](N)C[C@H](N)[C@H]3O[C@H]3O[C@H](CO)[C@@H](O)[C@H](O)[C@H]3N)O[C@@H]2CO)[C@H](N)[C@@H](O)[C@@H]1O` [Paromomycin Sulfate], for which the Z-score was inactive: 0.0778.

For `O=C1N=C(O)CN1N=Cc1ccc(-c2ccc([N+](=O)[O-])cc2)o1` [Dantrolene·Na], the Z-score is inactive: -0.0636.

With `C[C@@H](O)[C@H]1C(=O)N2C(C(=O)O)=C(S[C@@H]3CN[C@H](CNS(N)(=O)=O)C3)[C@H](C)[C@H]12` [Doripenem], the Z-score was inactive: 0.125.

Consider `CC(C)(C#N)c1cc(Cn2cncn2)cc(C(C)(C)C#N)c1` [Anastrozole], for which the Z-score is inactive: -0.102.

For the compound `CC(=O)c1ccc2c(c1)N(CCCN(C)C)c1ccccc1S2` [Acepromazine maleate], the Z-score is inactive: -0.736.

`CN(C)CCOC(C)(c1ccccc1)c1ccccn1` (centres undefined) [Doxylamine succinate salt]: the Z-score was inactive: 0.697.

As for `Oc1cc(O)c2c(c1)O[C@H](c1cc(O)c(O)c(O)c1)[C@H](O)C2` [Epigallocatechin], the Z-score is inactive: 0.339.

For `Nc1ccn([C@H]2CC[C@@H](CO)O2)c(=O)n1` [2',3'-  dideoxycytidine], the Z-score is inactive: 0.7.

For the compound `Nc1ccn([C@H]2CC[C@@H](CO)O2)c(=O)n1` [Zalcitabine (2',3'-Dideoxycytidine)], the Z-score was inactive: 0.375.

On to `O=C(Nc1ccccc1C(=O)NC1CCCCNC1=O)c1cc2ccccc2s1` (centres undefined), for which the Z-score was inactive: -0.473.

On to `CNC[C@H](O)c1ccc(O)c(O)c1` [(-)-Epinephrine (+)-bitartrate], for which the Z-score was inactive: -0.732.

In the case of `CN1CCN(CCCN2c3ccccc3Sc3ccc(C(F)(F)F)cc32)CC1` [Trifluoperazine· HCl], the Z-score was inactive: -0.118.

For `CN1CCN(CCCN2c3ccccc3Sc3ccc(C(F)(F)F)cc32)CC1` [Trifluoperazine dihydrochloride], the Z-score was inactive: -0.578.

On to `COc1ccc(OC)c(C(O)CNC(=O)CN)c1` (centres undefined) [Midodrine·HCl], for which the Z-score was inactive: -0.121.

As to `CC(S)C(=O)NCC(=O)O` (centres undefined) [Tiopronin], the Z-score is inactive: -0.818.

Regarding `CC[C@H](C)[C@H](N)C1=N[C@H](C(=O)N[C@@H](CC(C)C)C(=O)N[C@H](CCC(=O)O)C(=O)N[C@H](C(=O)N[C@H]2CCCCNC(=O)[C@H](CC(N)=O)NC(=O)[C@@H](CC(=O)O)NC(=O)[C@H](Cc3cnc[nH]3)NC(=O)[C@@H](Cc3ccccc3)NC(=O)[C@H]([C@@H](C)CC)NC(=O)[C@@H](CCCN)NC2=O)[C@@H](C)CC)CS1` [Bacitracin], the Z-score is inactive: -0.196.

Take `O=C(CCc1ccc(O)cc1)c1c(O)cc(O)cc1O` [Phloretin]: the Z-score is inactive: -0.427.

With `Cc1cn(CCN2CCN(c3ccccc3-c3cc(C#N)cc(C(=O)NCCCN4CCCC4)c3)CC2)c2ccccc12`, the Z-score was inactive: -1.09.

For `OC(CNCC(O)C1CCc2cc(F)ccc2O1)C1CCc2cc(F)ccc2O1` (centres undefined) [Nebivolol·HCl], the Z-score is inactive: -0.563.

For the compound `O=C(Nc1ccccc1-c1cn2c(CN3CCNCC3)csc2n1)c1cnc2ccccc2n1`, the Z-score is inactive: -1.69.

As to `CC(=O)NCCCS(=O)(=O)O` [Acamprosate calcium], the Z-score is inactive: 0.214.

For `COc1ccc2c(c1OC)C(=O)O[C@@H]2[C@H]1c2c(cc3c(c2OC)OCO3)CCN1C` (racemic) [(±)-Noscapine], the Z-score was inactive: 1.47.

Regarding `COc1ccc2c(c1OC)C(=O)O[C@@H]2[C@H]1c2c(cc3c(c2OC)OCO3)CCN1C` [Noscapine hydrochloride], the Z-score is inactive: -0.906.

For the compound `CCCCCCCCCCCCCCCC(=O)OC(CC(=O)O)C[N+](C)(C)C` (racemic) [Palmitoyl-DL- Carnitine chloride], the Z-score was inactive: 0.179.

As for `CN(C)CC(=O)Nc1ccc2[nH]c(=O)c3ccccc3c2c1`, the Z-score was inactive: -1.01.

As for `O=C(CCc1ccc(O)cc1)c1c(O)cc(O)cc1OC1OC(CO)C(O)C(O)C1O` (centres undefined) [Phlorizine], the Z-score was inactive: 0.461.

As to `C=C[C@@](C)(O)CC[C@H]1C(=C)CC[C@H]2C(C)(C)CCC[C@]12C` [Manool], the Z-score was inactive: 0.0665.

Turning to `Nc1nc2ccc(OC(F)(F)F)cc2s1` [Riluzole·HCl], the Z-score was inactive: -1.28.

Turning to `Nc1nc2ccc(OC(F)(F)F)cc2s1` [Riluzole], the Z-score is inactive: -0.564.

With `C/C1=C/CCC(C)(O)/C=C\C(C(C)C)C(OC(=O)c2ccc(O)cc2)C1` (centres undefined) [Feroline], the Z-score is inactive: -0.0954.

For the compound `COc1ccc2c(c1)c(CC(=O)O)c(C)n2C(=O)c1ccc(Cl)cc1` [Indomethacin], the Z-score is inactive: 0.853.

As to `Cc1nc(C#Cc2cccnc2)cs1`, the Z-score is inactive: -0.0895.

`O=C(O)c1cc(=O)cc(C(=O)O)[nH]1` [Chelidamic Acid]: the Z-score was inactive: -0.776.

As to `Cc1oc(-c2ccccc2)nc1CCC(=O)c1ccc(CC2SC(=O)NC2=O)cc1` (centres undefined) [Darglitazone sodium salt], the Z-score is inactive: -0.104.

Regarding `O=C(C1CCCCC1)N1CC(=O)N2CCc3ccccc3C2C1` (centres undefined) [Praziquantel], the Z-score is inactive: -0.558.

In the case of `C(=C\c1ccccc1)/CN1CCN(C(c2ccccc2)c2ccccc2)CC1` [Cinnarizine], the Z-score is inactive: -0.497.

With `CC(=O)c1cc([N+](=O)[O-])c(Sc2ccc(F)cc2F)s1`, the Z-score was inactive: -1.85.

As to `C[C@H](NC[C@H](O)CP(=O)(O)Cc1ccccc1)c1ccc(Cl)c(Cl)c1`, the Z-score was inactive: -0.0584.

With `COc1ccc([C@@H]2Sc3ccccc3N(CCN(C)C)C(=O)[C@@H]2OC(C)=O)cc1` [Diltiazem hydrochloride], the Z-score is inactive: 0.0703.

With `COc1ccc([C@@H]2Sc3ccccc3N(CCN(C)C)C(=O)[C@@H]2OC(C)=O)cc1` [Diltiazem·HCl], the Z-score is inactive: -0.488.

With `Cc1cn([C@H]2C[C@H](N=[N+]=[N-])[C@@H](CO)O2)c(=O)[nH]c1=O` [Zidovudine (3'-Azido-3'-Deoxythymidine)], the Z-score was inactive: -0.438.

For the compound `Cc1cn([C@H]2C[C@H](N=[N+]=[N-])[C@@H](CO)O2)c(=O)[nH]c1=O` [3'-Azido-3'- deoxythymidine], the Z-score was inactive: 0.148.

Consider `C=CCc1ccc(O)c(-c2cc(CC=C)ccc2O)c1` [Magnolol], for which the Z-score is inactive: -0.622.

`NS(=O)(=O)Cc1noc2ccccc12` [Zonisamide sodium salt]: the Z-score is inactive: 0.172.

Take `NS(=O)(=O)Cc1noc2ccccc12` [Zonisamide]: the Z-score is inactive: 0.548.

Take `CC(C[N+](C)(C)C)OC(N)=O` (centres undefined) [Bethanechol Chloride]: the Z-score is inactive: -0.585.

Turning to `CC(C[N+](C)(C)C)OC(N)=O` (centres undefined) [Bethanechol chloride], the Z-score is inactive: -0.431.

Consider `N[C@@H](Cc1c[nH]cn1)C(=O)O` [L-Histidine hydrochloride], for which the Z-score is inactive: 0.0919.

The values above are taken from the supplement of paper PMC8616043.
